From PubChem BioAssay AID248 (DTP/NCI, 2004)
The list is a part of this screen's results and no random one: it gathers tests that were run many times, whatever their T/C, doses with no T/C, and many T/C values between a quarter and a half above the control. Other doses and runs of a compound stand elsewhere. T/C: endpoint of the treated group in % of that of the vehicle group. Some entries give survivors of the animals treated and no T/C: the source holds a T/C of zero for them, seemingly a mark for toxic or unscored doses. Some doses without a T/C left all or most animals alive at the check, yet need not have been tolerated: the source hardly ever lists a survival T/C far under the control, and the zero likely stands for such cases as well. Survivors were counted at the toxicity check, usually on the fifth day, unless a day is given; later deaths do not show. Schedules are NCI's codes, read here as Q, the interval in days (D) or hours (H), X, the number of doses. Some doses were run more than once; their values stand side by side, smallest first. Some schedules carry Z or #; the key to these is not given. Where survival is the endpoint, the PubChem record calls one and a half times the control and up active, and a quarter to a half above the control has no call in these data; cut-offs in other NCI protocols can differ. Some T/C values carry the count of animals alive at the toxicity check (mostly the fifth day); without a count, all were alive then.

Test system: L1210 leukemia ip in BDF1 mice, survival T/C
Test: NCI In Vivo Anticancer Drug Screen. Data for tumor model L1210 Leukemia (intraperitoneal) in B6D2F1 (BDF1) mice
Conditions: higher T/C = longer survival

CCN(CC)CCN1C(=O)c2cccc3cccc(c23)C1=O was tested, and the T/C (T/C endpoint: mean survival time, dose: 52.0 mg/kg/injection, schedule: Q01DX009 (ip), vehicle: saline) was 141 % of control, the T/C (T/C endpoint: mean survival time, dose: 52.0 mg/kg/injection, schedule: Q03HX024 (ip), vehicle: saline) was 136 % of control and the T/C (T/C endpoint: mean survival time, dose: 143.0 mg/kg/injection, schedule: Q01DX009 (ip), vehicle: saline) was 128 % of control. For the same compound, the survivor count (T/C endpoint: mean survival time, dose: 143.0 mg/kg/injection, schedule: Q03HX024 (ip), vehicle: saline) was 10 of 10, the survivor count (T/C endpoint: mean survival time, dose: 215.0 mg/kg/injection, schedule: Q01DX009 (ip), vehicle: saline) was 5 of 10 and the survivor count (T/C endpoint: mean survival time, dose: 215.0 mg/kg/injection, schedule: Q03HX024 (ip), vehicle: saline) was 0 of 10. For the same compound, the survivor count (T/C endpoint: mean survival time, dose: 234.0 mg/kg/injection, schedule: Q01DX001 (ip), vehicle: saline) was 4 of 10, the survivor count (T/C endpoint: mean survival time, dose: 234.0 mg/kg/injection, schedule: Q04DX003 (ip), vehicle: saline) was 4 of 10 and the survivor count (T/C endpoint: mean survival time, dose: 322.0 mg/kg/injection, schedule: Q01DX009 (ip), vehicle: saline) was 0 of 10. The survivor count (T/C endpoint: mean survival time, dose: 322.0 mg/kg/injection, schedule: Q03HX024 (ip), vehicle: saline) was 0 of 10, the survivor count (T/C endpoint: mean survival time, dose: 348.0 mg/kg/injection, schedule: Q01DX001 (ip), vehicle: saline) was 1 of 10 and the survivor count (T/C endpoint: mean survival time, dose: 348.0 mg/kg/injection, schedule: Q04DX003 (ip), vehicle: saline) was 3 of 10. For the same compound, the survivor count (T/C endpoint: mean survival time, dose: 520.0 mg/kg/injection, schedule: Q01DX001 (ip), vehicle: saline) was 0 of 10 and 1 of 10, the survivor count (T/C endpoint: mean survival time, dose: 520.0 mg/kg/injection, schedule: Q04DX003 (ip), vehicle: saline) was 0 of 10 and 1 of 10 and the survivor count (T/C endpoint: mean survival time, dose: 960.0 mg/kg/injection, schedule: Q01DX001 (ip), vehicle: saline) was 0 of 10. For the same compound, the survivor count (T/C endpoint: mean survival time, dose: 960.0 mg/kg/injection, schedule: Q04DX003 (ip), vehicle: saline) was 0 of 10, the survivor count (T/C endpoint: mean survival time, dose: 1430.0 mg/kg/injection, schedule: Q01DX001 (ip), vehicle: saline) was 0 of 10 and the survivor count (T/C endpoint: mean survival time, dose: 1430.0 mg/kg/injection, schedule: Q04DX003 (ip), vehicle: saline) was 0 of 10. For the same compound, the survivor count (T/C endpoint: mean survival time, dose: 2150.0 mg/kg/injection, schedule: Q01DX001 (ip), vehicle: saline) was 0 of 10, the survivor count (T/C endpoint: mean survival time, dose: 2150.0 mg/kg/injection, schedule: Q04DX003 (ip), vehicle: saline) was 0 of 10 and the survivor count (T/C endpoint: mean survival time, dose: 3220.0 mg/kg/injection, schedule: Q01DX001 (ip), vehicle: saline) was 0 of 10. The survivor count (T/C endpoint: mean survival time, dose: 3220.0 mg/kg/injection, schedule: Q04DX003 (ip), vehicle: saline) was 0 of 10.
CN(C)C(=O)OCC[N+](C)(C)CCCCCC[N+](C)(C)CCOC(=O)N(C)C was tested, and the survivor count (T/C endpoint: mean survival time, dose: 150.0 mg/kg/injection, schedule: Q04DX003 (ip), vehicle: saline) was 2 of 6 and the survivor count (T/C endpoint: mean survival time, dose: 300.0 mg/kg/injection, schedule: Q04DX003 (ip), vehicle: saline) was 0 of 6.
Cn1c(=O)c2c(nc(OC3CCC=CO3)n2C)n(C)c1=O (stereo not drawn) was tested, and the survivor count (T/C endpoint: mean survival time, dose: 400.0 mg/kg/injection, schedule: Q01DX001 (ip), vehicle: other) was 1 of 4.
For NC(CCl)=NCc1ccccn1, the survivor count (T/C endpoint: mean survival time, dose: 200.0 mg/kg/injection, schedule: Q04DX002 (ip), vehicle: saline) was 1 of 3 and the survivor count (T/C endpoint: mean survival time, dose: 400.0 mg/kg/injection, schedule: Q04DX002 (ip), vehicle: saline) was 2 of 3.
In the case of CCC(C)C(NN)C(=O)O (stereo not drawn), the T/C (T/C endpoint: mean survival time, dose: 150.0 mg/kg/injection, schedule: Q01DX015 (ip), vehicle: carboxymethylcellulose (CMC)) was 128 % of control [5 of 6 alive] and the survivor count (T/C endpoint: mean survival time, dose: 250.0 mg/kg/injection, schedule: Q01DX015 (ip), vehicle: carboxymethylcellulose (CMC)) was 3 of 6.
COc1nncc(-c2cnnc(OC)n2)n1 was tested, and the survivor count (T/C endpoint: mean survival time, dose: 50.0 mg/kg/injection, schedule: Q04DX002 (ip), vehicle: Klucel (hydroxypropylcellulose) (HPC)) was 3 of 3, the survivor count (T/C endpoint: mean survival time, dose: 100.0 mg/kg/injection, schedule: Q04DX002 (ip), vehicle: Klucel (hydroxypropylcellulose) (HPC)) was 0 of 3 and the survivor count (T/C endpoint: mean survival time, dose: 200.0 mg/kg/injection, schedule: Q04DX002 (ip), vehicle: Klucel (hydroxypropylcellulose) (HPC)) was 0 of 3.
CCCCCCCCCCSS(=O)(=O)O was tested, and the survivor count (T/C endpoint: mean survival time, dose: 200.0 mg/kg/injection, schedule: Q01DX001 (ip), vehicle: other) was 6 of 6.
For c1ccc2c[n+](C[n+]3ccc4ccccc4c3)ccc2c1, the survivor count (T/C endpoint: mean survival time, dose: 400.0 mg/kg/injection, schedule: Q04DX003 (ip), vehicle: saline) was 1 of 6.
For CN=C(NC)c1ccc(NC(=O)/C=C/C(=O)Nc2ccc(C(=NC)NC)cc2)cc1, the survivor count (T/C endpoint: mean survival time, dose: 100.0 mg/kg/injection, schedule: Q01DX Z (ip), vehicle: carboxymethylcellulose (CMC)) was 2 of 6.
With NCCCNc1ccccc1 the survivor count (T/C endpoint: mean survival time, dose: 400.0 mg/kg/injection, schedule: Q01DX009 (ip), vehicle: saline) was 0 of 6.
For COC(=O)[C@@H]1c2cc3c(c(O)c2[C@@H](OC)C[C@@]1(C)O)C(=O)c1c(O)cc2c(c1C3=O)OC1O[C@@]2(C)[C@H](O)[C@@H](N(C)C)[C@@H]1O, the T/C (T/C endpoint: mean survival time, dose: 25.0 mg/kg/injection, schedule: Q01DX015 (ip), vehicle: carboxymethylcellulose (CMC)) was 125 % of control, the survivor count (T/C endpoint: mean survival time, dose: 100.0 mg/kg/injection, schedule: Q01DX009 (ip), vehicle: saline) was 6 of 6 and the survivor count (T/C endpoint: mean survival time, dose: 100.0 mg/kg/injection, schedule: Q01DX015 (ip), vehicle: carboxymethylcellulose (CMC)) was 0 of 6. The T/C (T/C endpoint: mean survival time, dose: 200.0 mg/kg/injection, schedule: Q01DX001 (ip), vehicle: carboxymethylcellulose (CMC)) was 127 % of control, the survivor count (T/C endpoint: mean survival time, dose: 200.0 mg/kg/injection, schedule: Q01DX015 (ip), vehicle: carboxymethylcellulose (CMC)) was 0 of 6 and the survivor count (T/C endpoint: mean survival time, dose: 400.0 mg/kg/injection, schedule: Q01DX001 (ip), vehicle: carboxymethylcellulose (CMC)) was 0 of 4. The survivor count (T/C endpoint: mean survival time, dose: 400.0 mg/kg/injection, schedule: Q01DX015 (ip), vehicle: carboxymethylcellulose (CMC)) was 0 of 6.
CN(C)N=Nc1cccc(C(N)=O)c1 was tested, and the T/C (T/C endpoint: mean survival time, dose: 40.0 mg/kg/injection, schedule: Q01DX009 (ip), vehicle: Klucel (hydroxypropylcellulose) (HPC)) was 133 % of control, the T/C (T/C endpoint: mean survival time, dose: 80.0 mg/kg/injection, schedule: Q01DX009 (ip), vehicle: Klucel (hydroxypropylcellulose) (HPC)) was 128 % of control and the survivor count (T/C endpoint: mean survival time, dose: 160.0 mg/kg/injection, schedule: Q01DX009 (ip), vehicle: Klucel (hydroxypropylcellulose) (HPC)) was 2 of 6. For the same compound, the T/C (T/C endpoint: median survival time, dose: 23.0 mg/kg/injection, schedule: Q01DX009 (ip), vehicle: steroid suspending solution) was 130 % of control, the T/C (T/C endpoint: median survival time, dose: 65.0 mg/kg/injection, schedule: Q04DX003 (ip), vehicle: steroid suspending solution) was 125 % of control and the survivor count (T/C endpoint: median survival time, dose: 108.0 mg/kg/injection, schedule: Q01DX009 (ip), vehicle: steroid suspending solution) was 7 of 8. The T/C (T/C endpoint: median survival time, dose: 108.0 mg/kg/injection, schedule: Q04DX003 (ip), vehicle: steroid suspending solution) was 145 % of control, the T/C (T/C endpoint: median survival time, dose: 180.0 mg/kg/injection, schedule: Q01DX001 (ip), vehicle: steroid suspending solution) was 130 % of control and the survivor count (T/C endpoint: median survival time, dose: 300.0 mg/kg/injection, schedule: Q01DX001 (ip), vehicle: steroid suspending solution) was 7 of 8. The survivor count (T/C endpoint: median survival time, dose: 500.0 mg/kg/injection, schedule: Q01DX001 (ip), vehicle: steroid suspending solution) was 0 of 8.
O=C1c2ccccc2-c2cc(-c3ccccc3)cc(-c3ccccc3)c21 was tested, and the survivor count (T/C endpoint: mean survival time, dose: 200.0 mg/kg/injection, schedule: Q04DX003 (ip), vehicle: Klucel (hydroxypropylcellulose) (HPC)) was 6 of 6.
For O=C(NCCN1CCCC1)NC1CCCCC1, the survivor count (T/C endpoint: mean survival time, dose: 400.0 mg/kg/injection, schedule: Q01DX009 (ip), vehicle: Klucel (hydroxypropylcellulose) (HPC)) was 0 of 6.
C=C1C(=O)OC2CC(C)CCC/C(CO)=C/C(OC(=O)/C(=C/CO)CO)C12 (stereo not drawn) was tested, and the survivor count (T/C endpoint: mean survival time, dose: 30.0 mg/kg/injection, schedule: Q01DX001 (ip), vehicle: acetone) was 1 of 6.
CCCCCC1SC1CC1SC1CCCCCCCC(=O)N1CCOCC1 (stereo not drawn) was tested, and the survivor count (T/C endpoint: mean survival time, dose: 200.0 mg/kg/injection, schedule: Q01DX009 (ip), vehicle: saline with Tween-80) was 3 of 6 and the survivor count (T/C endpoint: mean survival time, dose: 400.0 mg/kg/injection, schedule: Q01DX009 (ip), vehicle: saline with Tween-80) was 2 of 6.
In the case of CC1CC(=O)N(Cl)C(=O)N1Cl (stereo not drawn), the survivor count (T/C endpoint: mean survival time, dose: 300.0 mg/kg/injection, schedule: Q01DX001 (ip), vehicle: saline) was 3 of 6.
For CSc1ccccc1C1CCCCCC1OS(C)(=O)=O (stereo not drawn), the survivor count (T/C endpoint: mean survival time, dose: 200.0 mg/kg/injection, schedule: Q01DX001 (ip), vehicle: Klucel (hydroxypropylcellulose) (HPC)) was 2 of 6 and the survivor count (T/C endpoint: mean survival time, dose: 400.0 mg/kg/injection, schedule: Q01DX001 (ip), vehicle: Klucel (hydroxypropylcellulose) (HPC)) was 0 of 6.
In the case of O=C1Nc2ccc(Br)cc2C1(O)Cc1cccc([N+](=O)[O-])c1 (stereo not drawn), the survivor count (T/C endpoint: mean survival time, dose: 400.0 mg/kg/injection, schedule: Q04DX002 (ip), vehicle: saline with Tween-80) was 3 of 3.
O=C1C=C(O)c2ccc(=O)[nH]c2C1=O was tested, and the survivor count (T/C endpoint: mean survival time, dose: 400.0 mg/kg/injection, schedule: Q01DX001 (ip), vehicle: saline) was 2 of 6.
